Patent publication US5230802A, “Extraction process using a novel organic acid as a liquid ion exchanger” (Philip Morris Incorporated, priority 1992, dated 1993)

Experiments:
[1] = Membrane-based extraction of pyridine using liquid ion exchangers (Table II); conditions: LIX 5%, PAN membrane, CO2-saturated FS, OS Isopar K
[2] = Membrane-based extraction of nicotine using liquid ion exchangers (Table II); conditions: PAN membrane, CO2-saturated FS, OS Isopar K

SMILES	Extraction Capacity [1]	Extraction Capacity ([2]; LIX 2%)	Extraction Capacity ([2]; LIX 5%)
CCCCC(CC)COC(=O)[C@H](OC(=O)CC)[C@@H](OC(=O)CC)C(=O)O (mixture of isomers) [Example V, (2R, 3R, 2'R)- and (2R, 3R, 2'S)-Mono(2'-Ethylhexyl) 2,3-Bis(propionyloxy)butanedioate]	4.2 g/day-m		
CCCCC(CC)COC(=O)[C@H](OC(=O)C(CC)CCCC)[C@@H](OC(=O)C(CC)CCCC)C(=O)O (stereo partly drawn) [Example X, (2R, 3R, 2'.xi., 2''.xi., 2'''.xi.)-Mono(2'-Ethylhexyl) 2,3-Bis(2-ethylhexanoyloxy)butanedioate]		8.2 g/day-m	9.8 g/day-m
CCCCCCCCOC(=O)[C@H](OC(=O)CC)[C@@H](OC(=O)CC)C(=O)O [Example IV, (2R, 3R)-Monooctyl 2,3-Bis(propionyloxy) butanedioate]	5.1 g/day-m		
